Measurements published in PMC12538437, “Branched DNA processing by a thermostable CAS-Cas4 from Thermococcus onnurineus: Expanding biochemical landscape of nuclease activity”.
No constants are given. Whether binding was seen depends on the method and setting.

Molecular target: Cas2 protein from Thermococcus onnurineus NA1 (TON_0320) (Thermococcus onnurineus NA1)
Test: pull-down; in vitro double pull-down: TON_0321 (75 μg) and Cas2 (75 μg) mixed, glutathione Sepharose 4B beads 2 h at 4 °C, eluted with 10 mM glutathione, eluate then on Ni-NTA agarose beads 2 h at 4 °C, eluted with 500 mM imidazole; 25 mM Tris-HCl pH 8.0, 150 mM NaCl, 5% glycerol; Coomassie-stained gels; both purified

B1: TON_0321, CAS-Cas4 protein from Thermococcus onnurineus NA1 (enzyme, UniProt B6YTB9 1-222)
chain: MGYPEEIEEFNERIRNAIVGKTPERKIWVTSLSYCLRKAALSIYLGTFKYERTGEMLVGSVLHEWLGNALSSEDIEFEVTVEYPLEDGWKLVGRVDAVKGNYPLEFKFKGFNGEDESSPKTPDEMNEPPKLAKEQLNAYLNMMDKKLGYIYVFDRNGLSFKPFPVERDKKAFQRILRRAKVVIEGVRQLESGSFPEWIKPRYGKRECGGCLFRPICEAVESK
Q: Which binding does the source give for B1 here?
A: no binding (tested: 75 μg of each protein)
